Experimental data from article PMC5128727, “Metalloprotease SPRTN/DVC1 Orchestrates Replication-Coupled DNA-Protein Crosslink Repair”.
No constants are given. Whether binding was seen depends on the method and setting. Binding seen in cells or lysates may run through a third protein. Some entries that bind do so weakly or less than the wild type. Sequences can lack the tags named with a protein.

Chains of the proteins cited; added tags and fusions are not shown.
UniProt P11387: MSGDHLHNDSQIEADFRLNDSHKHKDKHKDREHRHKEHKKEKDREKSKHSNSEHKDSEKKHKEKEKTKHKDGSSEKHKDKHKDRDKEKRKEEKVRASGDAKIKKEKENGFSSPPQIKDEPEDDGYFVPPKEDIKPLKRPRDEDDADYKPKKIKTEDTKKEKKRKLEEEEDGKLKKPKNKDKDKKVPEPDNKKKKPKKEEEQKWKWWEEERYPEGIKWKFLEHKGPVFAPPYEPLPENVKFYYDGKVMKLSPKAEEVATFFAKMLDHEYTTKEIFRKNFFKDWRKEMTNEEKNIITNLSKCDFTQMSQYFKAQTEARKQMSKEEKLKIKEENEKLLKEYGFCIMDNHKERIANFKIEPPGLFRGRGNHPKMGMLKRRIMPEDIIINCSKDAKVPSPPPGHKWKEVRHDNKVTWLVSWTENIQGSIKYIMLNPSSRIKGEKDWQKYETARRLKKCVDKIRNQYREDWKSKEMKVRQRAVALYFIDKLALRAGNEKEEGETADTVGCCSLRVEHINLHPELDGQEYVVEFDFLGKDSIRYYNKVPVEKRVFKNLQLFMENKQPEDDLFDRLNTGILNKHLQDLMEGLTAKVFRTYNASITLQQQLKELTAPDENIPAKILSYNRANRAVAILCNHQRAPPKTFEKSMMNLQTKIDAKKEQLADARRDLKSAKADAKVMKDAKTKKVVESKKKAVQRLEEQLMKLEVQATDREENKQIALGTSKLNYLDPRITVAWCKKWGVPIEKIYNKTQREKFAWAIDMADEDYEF
UniProt P49736: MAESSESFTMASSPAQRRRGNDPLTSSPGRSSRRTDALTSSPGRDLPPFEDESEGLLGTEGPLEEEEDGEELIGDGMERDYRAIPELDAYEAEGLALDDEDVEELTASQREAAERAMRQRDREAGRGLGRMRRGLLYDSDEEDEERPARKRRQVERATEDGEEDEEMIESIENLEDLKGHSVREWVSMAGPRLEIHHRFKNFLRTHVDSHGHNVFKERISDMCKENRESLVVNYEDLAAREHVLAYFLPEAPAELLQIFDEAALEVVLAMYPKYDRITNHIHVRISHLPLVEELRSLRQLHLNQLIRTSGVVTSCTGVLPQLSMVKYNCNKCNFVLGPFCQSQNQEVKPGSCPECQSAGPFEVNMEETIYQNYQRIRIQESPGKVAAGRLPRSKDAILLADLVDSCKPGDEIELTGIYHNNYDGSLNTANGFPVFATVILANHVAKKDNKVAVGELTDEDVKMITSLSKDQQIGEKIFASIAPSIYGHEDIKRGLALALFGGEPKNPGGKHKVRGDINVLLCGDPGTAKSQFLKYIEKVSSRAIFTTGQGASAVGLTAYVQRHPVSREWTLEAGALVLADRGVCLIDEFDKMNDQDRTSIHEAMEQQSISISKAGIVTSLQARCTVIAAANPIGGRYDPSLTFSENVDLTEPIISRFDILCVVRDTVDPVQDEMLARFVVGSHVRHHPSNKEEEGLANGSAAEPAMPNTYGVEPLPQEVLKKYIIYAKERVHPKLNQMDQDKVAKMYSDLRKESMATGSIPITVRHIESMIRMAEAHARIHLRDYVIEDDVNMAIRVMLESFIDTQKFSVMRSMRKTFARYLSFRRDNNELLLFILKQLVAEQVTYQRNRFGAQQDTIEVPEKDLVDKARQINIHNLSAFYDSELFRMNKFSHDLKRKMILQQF

T1: SPRTN-Strep-Strep-His (SSH) (human) (UniProt Q9H040)
T1 sequence: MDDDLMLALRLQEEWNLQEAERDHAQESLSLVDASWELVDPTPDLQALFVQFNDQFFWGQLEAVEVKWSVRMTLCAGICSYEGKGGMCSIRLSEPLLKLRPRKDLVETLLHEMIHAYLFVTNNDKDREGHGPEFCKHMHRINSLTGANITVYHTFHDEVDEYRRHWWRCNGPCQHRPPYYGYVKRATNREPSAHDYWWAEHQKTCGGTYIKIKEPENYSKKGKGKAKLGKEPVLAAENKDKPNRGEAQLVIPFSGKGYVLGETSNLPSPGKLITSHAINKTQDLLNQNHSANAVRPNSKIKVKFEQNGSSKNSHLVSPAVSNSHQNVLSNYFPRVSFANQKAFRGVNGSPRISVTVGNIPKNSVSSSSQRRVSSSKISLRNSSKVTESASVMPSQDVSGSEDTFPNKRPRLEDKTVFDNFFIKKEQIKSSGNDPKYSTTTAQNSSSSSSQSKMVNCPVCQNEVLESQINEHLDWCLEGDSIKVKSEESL


Target: T1, SPRTN-Strep-Strep-His (SSH) (human)
Assay: co-IP; SPRTN-SSH isolated from total HEK293 cell extracts over Streptactin sepharose under high salt and detergent conditions; partners detected by blot

| binding | Molecule |
| --- | --- |
| binds | Topoisomerase 1 (from UniProt P11387 1-765) |
| binds | minichromosome maintenance complex (MCM) subunit 2 (from UniProt P49736 1-904) |
| binds | minichromosome maintenance complex (MCM) subunit 6 (protein, UniProt Q14566 1-821) MDLAAAAEPGAGSQHLEVRDEVAEKCQKLFLDFLEEFQSSDGEIKYLQLAEELIRPERNTLVVSFVDLEQFNQQLSTTIQEEFYRVYPYLCRALKTFVKDRKEIPLAKDFYVAFQDLPTRHKIRELTSSRIGLLTRISGQVVRTHPVHPELVSGTFLCLDCQTVIRDVEQQFKYTQPNICRNPVCANRRRFLLDTNKSRFVDFQKVRIQETQAELPRGSIPRSLEVILRAEAVESAQAGDKCDFTGTLIVVPDVSKLSTPGARAETNSRVSGVDGYETEGIRGLRALGVRDLSYRLVFLACCVAPTNPRFGGKELRDEEQTAESIKNQMTVKEWEKVFEMSQDKNLYHNLCTSLFPTIHGNDEVKRGVLLMLFGGVPKTTGEGTSLRGDINVCIVGDPSTAKSQFLKHVEEFSPRAVYTSGKASSAAGLTAAVVRDEESHEFVIEAGALMLADNGVCCIDEFDKMDVRDQVAIHEAMEQQTISITKAGVKATLNARTSILAAANPISGHYDRSKSLKQNINLSAPIMSRFDLFFILVDECNEVTDYAIARRIVDLHSRIEESIDRVYSLDDIRRYLLFARQFKPKISKESEDFIVEQYKHLRQRDGSGVTKSSWRITVRQLESMIRLSEAMARMHCCDEVQPKHVKEAFRLLNKSIIRVETPDVNLDQEEEIQMEVDEGAGGINGHADSPAPVNGINGYNEDINQESAPKASLRLGFSEYCRISNLIVLHLRKVEEEEDESALKRSELVNWYLKEIESEIDSEEELINKKRIIEKVIHRLTHYDHVLIELTQAGLKGSTEGSESYEEDPYLVVNPNYLLED |
